For three substances, binding results are on record in paper PMC7171199.

By UniProt entry, the sequences of proteins in these tests, tags left out.
UniProt Q96D31: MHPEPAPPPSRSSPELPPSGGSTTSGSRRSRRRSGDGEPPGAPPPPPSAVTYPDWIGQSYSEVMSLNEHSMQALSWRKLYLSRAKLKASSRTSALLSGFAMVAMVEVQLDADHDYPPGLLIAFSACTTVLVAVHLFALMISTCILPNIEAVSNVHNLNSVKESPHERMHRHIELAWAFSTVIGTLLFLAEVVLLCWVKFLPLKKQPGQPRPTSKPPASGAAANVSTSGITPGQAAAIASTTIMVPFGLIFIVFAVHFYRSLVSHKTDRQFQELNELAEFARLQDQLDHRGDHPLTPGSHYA
UniProt Q60598: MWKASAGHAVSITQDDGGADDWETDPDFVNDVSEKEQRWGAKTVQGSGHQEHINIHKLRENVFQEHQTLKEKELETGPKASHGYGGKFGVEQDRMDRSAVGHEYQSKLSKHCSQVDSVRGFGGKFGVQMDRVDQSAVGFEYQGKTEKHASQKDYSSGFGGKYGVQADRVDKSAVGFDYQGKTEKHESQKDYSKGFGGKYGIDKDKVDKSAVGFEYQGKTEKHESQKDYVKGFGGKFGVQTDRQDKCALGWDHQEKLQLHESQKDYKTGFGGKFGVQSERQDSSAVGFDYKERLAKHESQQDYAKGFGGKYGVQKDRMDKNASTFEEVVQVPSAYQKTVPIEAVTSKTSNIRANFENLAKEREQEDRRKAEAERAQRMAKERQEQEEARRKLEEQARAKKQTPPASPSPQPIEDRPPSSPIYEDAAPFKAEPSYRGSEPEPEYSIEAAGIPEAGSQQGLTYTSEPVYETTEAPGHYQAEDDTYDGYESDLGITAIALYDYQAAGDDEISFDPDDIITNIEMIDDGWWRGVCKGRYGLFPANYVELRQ
UniProt Q14247: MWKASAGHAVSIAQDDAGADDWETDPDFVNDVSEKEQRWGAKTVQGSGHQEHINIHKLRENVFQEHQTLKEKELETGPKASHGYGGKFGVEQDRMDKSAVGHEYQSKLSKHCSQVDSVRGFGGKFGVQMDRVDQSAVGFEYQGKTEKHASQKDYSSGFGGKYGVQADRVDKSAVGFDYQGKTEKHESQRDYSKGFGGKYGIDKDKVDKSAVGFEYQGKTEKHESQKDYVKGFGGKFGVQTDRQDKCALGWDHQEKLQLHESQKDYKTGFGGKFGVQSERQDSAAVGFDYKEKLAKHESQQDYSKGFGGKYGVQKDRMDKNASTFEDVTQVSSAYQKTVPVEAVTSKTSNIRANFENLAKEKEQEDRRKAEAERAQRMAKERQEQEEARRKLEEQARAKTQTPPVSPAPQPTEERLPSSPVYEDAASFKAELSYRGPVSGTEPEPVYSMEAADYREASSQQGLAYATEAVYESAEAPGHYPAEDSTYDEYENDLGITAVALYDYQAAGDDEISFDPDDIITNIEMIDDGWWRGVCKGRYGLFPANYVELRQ
UniProt Q7L576: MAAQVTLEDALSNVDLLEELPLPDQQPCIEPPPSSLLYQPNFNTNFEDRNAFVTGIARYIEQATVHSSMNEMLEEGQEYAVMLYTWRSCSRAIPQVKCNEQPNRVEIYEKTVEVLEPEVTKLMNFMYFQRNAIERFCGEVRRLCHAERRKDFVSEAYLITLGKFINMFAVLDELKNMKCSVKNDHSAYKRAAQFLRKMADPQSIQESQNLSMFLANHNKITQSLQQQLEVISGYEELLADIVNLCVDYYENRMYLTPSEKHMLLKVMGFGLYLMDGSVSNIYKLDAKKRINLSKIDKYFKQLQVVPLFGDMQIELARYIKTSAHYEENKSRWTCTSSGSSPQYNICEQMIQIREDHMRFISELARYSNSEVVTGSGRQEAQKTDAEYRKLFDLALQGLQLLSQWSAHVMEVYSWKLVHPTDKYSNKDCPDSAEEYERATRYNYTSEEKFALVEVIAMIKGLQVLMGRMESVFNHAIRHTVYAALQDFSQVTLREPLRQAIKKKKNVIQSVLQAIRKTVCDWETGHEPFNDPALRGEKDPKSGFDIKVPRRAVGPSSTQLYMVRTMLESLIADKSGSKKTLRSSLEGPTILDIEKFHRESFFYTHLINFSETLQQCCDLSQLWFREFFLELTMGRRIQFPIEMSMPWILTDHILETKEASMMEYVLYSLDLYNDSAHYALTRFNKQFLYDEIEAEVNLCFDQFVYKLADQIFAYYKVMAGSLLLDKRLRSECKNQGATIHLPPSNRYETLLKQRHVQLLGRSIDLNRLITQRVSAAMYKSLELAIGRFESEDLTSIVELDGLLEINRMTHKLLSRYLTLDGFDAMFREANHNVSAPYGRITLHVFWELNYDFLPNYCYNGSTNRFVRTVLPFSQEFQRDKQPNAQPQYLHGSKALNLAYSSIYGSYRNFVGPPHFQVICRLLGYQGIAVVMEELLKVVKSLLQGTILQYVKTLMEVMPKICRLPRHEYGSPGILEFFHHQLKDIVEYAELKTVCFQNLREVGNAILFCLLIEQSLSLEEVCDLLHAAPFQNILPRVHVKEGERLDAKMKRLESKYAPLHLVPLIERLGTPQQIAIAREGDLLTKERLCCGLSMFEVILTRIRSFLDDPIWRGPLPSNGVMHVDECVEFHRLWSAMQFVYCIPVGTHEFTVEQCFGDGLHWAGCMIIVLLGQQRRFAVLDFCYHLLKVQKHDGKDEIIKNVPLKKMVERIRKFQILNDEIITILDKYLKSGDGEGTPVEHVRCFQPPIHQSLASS

Results are given in words; binding and its absence hold for the method and conditions named. Binding seen in cells or lysates may run through a third protein. Some binding calls cover weakened binding; strength is not graded here.

The target in the assay is human ORAI1-GFP (human) (UniProt Q96D31). In words: co-IP; ORAI1-GFP captured with GFP-Trap agarose beads from clarified U2OS lysates (0.8-1 mg; 1% Nonidet P40 buffer), 1 h at 4 °C; washed once with lysis buffer with 0.15 M NaCl; co-precipitated proteins seen by immunoblot; cells starved, with or without 50 ng/ml EGF (up to 3 min), with or without 50 uM NSC 23766 for 8 h. On the technique in general: In western blotting, separated proteins are transferred to a membrane and probed.

Consider “mCherry-cortactin (from UniProt Q60598 1-546)”, for which the binding entry was “binds”.
Then “endogenous cortactin (CTTN) (from UniProt Q14247 1-550)”, with “binds”; and “endogenous CYFIP1 (cytosolic FMR-interacting protein 1) (from UniProt Q7L576 1-1253)”, with “binds”.
